These are yes or no findings as the source states them, for the method shown. In cells and extracts the contact can be indirect. Binding calls can cover weak binding; strength is not graded here.
Target: Flag::RAB-8 (C. elegans) (UniProt G5EFC1)
Test: co-IP; GFP::RABN-8 and Flag::RAB-8 co-transfected in HEK293 cells; lysis in RIPA buffer; IP with anti-Flag antibody overnight at 4 °C, protein A/G agarose; blot with anti-GFP; mouse IgG as negative control

Protein sequences, listed by entry. Tags and fused reporters are not part of them. Lines headed by an entry give the natural chain unless they say otherwise; changes in a name come on top.
UniProt G5EFC1: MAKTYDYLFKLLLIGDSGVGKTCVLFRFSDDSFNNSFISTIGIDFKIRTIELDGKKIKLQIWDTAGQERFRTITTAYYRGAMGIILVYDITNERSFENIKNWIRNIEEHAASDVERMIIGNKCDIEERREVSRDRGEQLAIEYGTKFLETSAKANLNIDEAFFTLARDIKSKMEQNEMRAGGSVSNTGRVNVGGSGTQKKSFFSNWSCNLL
UniProt Q20759: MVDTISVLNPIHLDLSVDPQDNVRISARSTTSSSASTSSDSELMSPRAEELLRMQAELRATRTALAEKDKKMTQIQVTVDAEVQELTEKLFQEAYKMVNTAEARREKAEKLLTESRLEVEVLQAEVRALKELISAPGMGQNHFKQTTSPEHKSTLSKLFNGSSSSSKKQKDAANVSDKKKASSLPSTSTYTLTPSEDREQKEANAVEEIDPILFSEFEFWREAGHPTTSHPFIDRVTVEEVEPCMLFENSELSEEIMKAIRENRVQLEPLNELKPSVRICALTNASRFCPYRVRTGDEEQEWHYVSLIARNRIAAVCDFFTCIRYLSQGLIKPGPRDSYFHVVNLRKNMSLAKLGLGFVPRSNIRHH

For GFP::RABN-8 (from UniProt Q20759), the binding was “binds”.

Reference: paper PMC7589727
